Results on one compound are retold here after US20180258123A1, “Suppressors of Premature Termination Codons as Therapeutics and Methods for Their Use” (The University of British Columbia, priority 2015, published 2018).

The test has as its system HDQ-P1 cells, full-length p53. As to the kind of experiment: p53 read-through assay with steroids (western blotting, FIG. 4). It is filed as cell-based, human. On the procedure:
HDQ-P1 cells were seeded at 100,000 cells per well of TC-treated 6-well plates. The next day, the medium was replaced with fresh medium containing compounds to be tested and were incubated for 48 to 96 h. The medium was removed by aspiration, cell monolayers were rinsed with 1 ml ice-cold PBS. Cells were lysed in 80 μl lysis buffer (20 mM Tris-HCl pH 7.5, 150 mM NaCl, 1 mM EDTA, 1 mM EGTA, 1% (v/v) Triton […], 2.5 mM sodium pyrophosphate, 1 mM beta-glycerophosphate supplemented with fresh 1 mM Na3VO4, 1 mM dithiothreitol and 1× complete protease inhibitor cocktail (Roche Molecular BiochemicalsTM)). Lysates were pre-cleared by centrifugation at 18,000 g for 15 min at 4° C. Supernatants were collected, protein was quantitated using the Bradford assay and lysates were adjusted to 1 mg/ml protein. Capillary electrophoresis and western analysis conditions were carried out with manufacturer's reagents according to the user manual (ProteinSimple WESTM). Briefly, 5.6 μl of cell lysate was mixed with 1.4 μl fluorescent master mix and heated at 95° C. for 5 min. The samples, blocking reagent, wash buffer, DO-1 p53 antibody (0.5 μg/ml) and vinculin antibody (1:2000, R&D clone 728526), secondary antibody and chemiluminescent substrate were dispensed into the microplate provided by the manufacturer. […] The data was analyzed with inbuilt CompassTM software (ProteinsimpleTM). […]

Regarding `C[C@H]1C[C@H]2[C@@H]3CCC4=CC(=O)C=C[C@]4(C)[C@@]3(F)[C@@H](O)C[C@]2(C)[C@@]1(O)C(=O)CO` [Betamethazone, Betamethasone], the “read-through activity of steroid alone” value is recorded as “no read-through activity”.
